# Assay results as given in patent US20090275648A1, “MACROCYCLIC GHRELIN RECEPTOR ANTAGONISTS AND INVERSE AGONISTS AND METHODS OF USING THE SAME” (priority 2005, published 2009).
# Protein sequences, listed by entry. Tags and fused reporters are not part of them.
# UniProt Q92847, whole entry: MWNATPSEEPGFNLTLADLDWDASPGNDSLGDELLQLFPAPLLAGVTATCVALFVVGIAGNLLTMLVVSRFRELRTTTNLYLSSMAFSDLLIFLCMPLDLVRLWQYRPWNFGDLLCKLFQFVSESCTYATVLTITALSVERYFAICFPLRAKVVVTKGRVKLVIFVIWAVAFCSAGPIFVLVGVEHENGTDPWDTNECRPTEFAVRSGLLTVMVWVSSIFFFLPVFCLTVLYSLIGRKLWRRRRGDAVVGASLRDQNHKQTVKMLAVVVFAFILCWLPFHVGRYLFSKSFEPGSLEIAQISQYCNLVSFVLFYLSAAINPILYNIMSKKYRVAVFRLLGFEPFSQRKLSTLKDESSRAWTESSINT
# The match of structure and compound is tentative.
# Tests used:
# [1] = molecular target: human ghrelin receptor (hGHS-R1a) (Homo sapiens, UniProt Q92847); assay: Competitive radioligand binding assay (ghrelin receptor), [125I]-ghrelin, GHS-R/HEK 293 membranes; conditions: read-out: Activity (Ki,), competition with [125I]-ghrelin
# [2] = molecular target: ghrelin receptor (Homo sapiens, UniProt Q92847); assay: Aequorin functional assay (ghrelin receptor), Example 3; conditions: read-out: Activity (IC50); antagonist testing vs ghrelin at EC80 (3.7 nM)
structure (smiles),measurement,setting,value
CCC(C)[C@@H]1NCCOc2ccccc2/C=C\CNC(=O)[C@@H](Cc2ccccc2)NC(=O)[C@H](C(C)O)N(C)C1=O (some centres unmarked),Ki,[1],100 to 1000 nM
same,IC50,[2],> 1500 nM
